Laboratory results from US10927375B1, “Compositions and methods to reduce beta-agonist-mediated tachyphylaxis” (University of South Florida, priority 2018, dated 2021).
At least one compound was matched to its structure with a doubt left.

What was measured:
[1] = system: let-7f miRNA expression in HASM cells; experiment: let-7f miRNA expression in cultured HASM cells by quantitative RT-PCR; type: cell-based, human; conditions: 18 h at 37° C.; asthmatic and nonasthmatic HASM cells; ISO 30 μM, forskolin 10 mM, dibutyryl-cAMP 100 mM as printed
cAMP = cAMP stimulation in HASM cells (data not shown); type: cell-based, human; conditions: dose of forskolin used

C=C[C@@]1(C)CC(=O)[C@]2(O)[C@@]3(C)[C@@H](O)CCC(C)(C)[C@@H]3[C@H](O)[C@H](OC(C)=O)[C@@]2(C)O1 [forskolin]
change in let-7f miRNA expression after treatment with the agent [1]: increased let-7f to a similar extent as ISO | cAMP stimulation relative to ISO (cAMP): equieffective
